Experimental data: publication doi:10.1101/2022.02.18.480778
No constants are given. Whether binding was seen depends on the method and setting. In cells and extracts the contact can be indirect. These calls come from enrichment with a bait or labelling near it, and not all partners need be listed.

Biological target: Shiftless (SHFL, C19ORF66), endogenous in iSLK.WT cells (human (endogenous in iSLK.WT)) (UniProt Q9NUL5)
Experiment: affinity purification with mass spectrometry

KSHV ORF57, viral protein in iSLK.WT cells (from UniProt Q2HR75 1-455)
binding: binds
